# Laboratory results from paper PMC7819943, “Rice protein-binding microarrays: a tool to detect cis-acting elements near promoter regions in rice”.
# Amino acid sequences for entries named in this document (tags omitted).
# UniProt Q0JBA9, entry or part of it: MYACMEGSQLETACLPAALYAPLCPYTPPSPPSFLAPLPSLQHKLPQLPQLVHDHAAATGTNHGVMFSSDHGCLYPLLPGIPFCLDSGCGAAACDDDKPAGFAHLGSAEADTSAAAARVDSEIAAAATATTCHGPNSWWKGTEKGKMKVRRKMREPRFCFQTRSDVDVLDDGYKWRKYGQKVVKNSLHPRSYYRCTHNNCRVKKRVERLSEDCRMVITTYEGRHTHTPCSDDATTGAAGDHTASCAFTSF
# The list shows a part of the results.
# Target: OsWRKY34 (Oryza sativa, UniProt Q0JBA9 1-250)
# Assay: protein-binding microarray (RPBM); PBS, 2% BSA, 51.3 ng/ul salmon testes DNA, 50 uM zinc acetate, 200 nM TF, 25 C, 1 h; high values mean tight binding
# Settings: protein: recombinant; tags: N-terminal polyhistidine and DsRed monomer fusion (pET32a); label: CyDye5-dUTP incorporated in the synthesized complementary strand; 3' TTTTT single-stranded linker to array surface; dsDNA, one strand shown
# Summary of the method: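 The binding signal for each feature is its fluorescence intensity in arbitrary units. An Axon 4000B scanner was used to read a custom Agilent array that had been made double-stranded with Cy5-dUTP primer extension, blocked with 2% BSA, incubated at 25 °C for 1 h with 200 nM protein in PBS, 2% BSA, salmon testes DNA and 50 µM zinc acetate, and washed. The protein was an N-terminal polyhistidine–DsRed transcription factor fusion from E. coli BL21-CodonPlus, purified on Ni–NTA.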
row,Sequence,binding signal
1,TCCTTAAATCAACATCAATTCGGCTTGTTGTTATCATCTACGGAGTCACCTAGTGCAG,8840 fluorescence intensity (a.u.)
2,ATGTTTGACCGTTCGTTTTATTCAAAAAAAACTTTTGTGACGGAGTCACCTAGTGCAG,8140 fluorescence intensity (a.u.)
3,AAAAGCATATGGTTTCTGACTTTCTTCTCCATTCCTTTTCCGGAGTCACCTAGTGCAG,8510 fluorescence intensity (a.u.)
4,GTAGTGTGGATGCCATTCAAATCTGCCTCCGCCGCCGACGCGGAGTCACCTAGTGCAG,8180 fluorescence intensity (a.u.)
5,AGTAGAGTATTTTTTTTTCTTTTTTGATTGATGGTGATAACGGAGTCACCTAGTGCAG,8320 fluorescence intensity (a.u.)
6,TCTCATTTTACACTTTGAATATCTCTCCCTTTTCTTTTGACGGAGTCACCTAGTGCAG,8340 fluorescence intensity (a.u.)
7,ACCACGCCATGAGTTGCATCCATGCATGCTTCTATTCATTCGGAGTCACCTAGTGCAG,11600 fluorescence intensity (a.u.)
8,TTTTCTAGGCTGATAGTTCTAGCTGTAGTTTCTTCCTATACGGAGTCACCTAGTGCAG,8250 fluorescence intensity (a.u.)
9,GTCGCACAACTTCACCTTCGCCATCCAGCAGGCGCGCACCCGGAGTCACCTAGTGCAG,9180 fluorescence intensity (a.u.)
10,GTGCACCGTGGCGGGGCTGAAGGAGCGGGTGCAGGAGGGGCGGAGTCACCTAGTGCAG,8680 fluorescence intensity (a.u.)
11,CATCTCCATTCTTTCATCCTCATCTCTAATGGAGAATTTCCGGAGTCACCTAGTGCAG,9460 fluorescence intensity (a.u.)
12,ATCACCACCGCCGCCAACCACTCCTCACCAAGTCAAAGTTCGGAGTCACCTAGTGCAG,11200 fluorescence intensity (a.u.)
13,CTGTACCAGTTGTGCGTGGGCCATTTGCGATTTGCTACAACGGAGTCACCTAGTGCAG,9350 fluorescence intensity (a.u.)
14,TGCTCTGCCTCCTCCTCGGCTTCTGCTTCGCGTTCGCGGCCGGAGTCACCTAGTGCAG,8130 fluorescence intensity (a.u.)
15,CCCACATTCTGCCACCCTCCCCTCACACCCCACCCTTTCCCGGAGTCACCTAGTGCAG,8870 fluorescence intensity (a.u.)
16,TCTACGAGGGTTTTTGCGCTTTTGTTGCTCTCCGCTCCGCCGGAGTCACCTAGTGCAG,8160 fluorescence intensity (a.u.)
17,ACCCATGCCTGACCCGATACATTTGTATTAGCTAATTTCGCGGAGTCACCTAGTGCAG,10300 fluorescence intensity (a.u.)
18,TATAAGTTAAGTATAGTTGACCAAATCTCAACTTTTCAGCCGGAGTCACCTAGTGCAG,8690 fluorescence intensity (a.u.)
19,GCGTGGTGCATTTCTTTGTTTTTTGAGGTAGCCATGGTCCCGGAGTCACCTAGTGCAG,9450 fluorescence intensity (a.u.)
20,GCTGCTTGTTCTTGAACCCCTTTGTCGCCTGGTAGAGCTCCGGAGTCACCTAGTGCAG,9390 fluorescence intensity (a.u.)
21,TCTACATCATCGCCGAAGCCGCCGCTTGCCCGTACGCTGCCGGAGTCACCTAGTGCAG,8570 fluorescence intensity (a.u.)
22,ACCCCGACCACGACCACGCTGGAAACTTCCCAACCCCTAGCGGAGTCACCTAGTGCAG,8290 fluorescence intensity (a.u.)
23,AGGAGAGGGGTTTACTCGGTTGAGGATTTTCTTGTTCTCACGGAGTCACCTAGTGCAG,8180 fluorescence intensity (a.u.)
24,TCGATTTCCTGAATCGAGGGTGCGTTTGGTGGGAAAATTACGGAGTCACCTAGTGCAG,9260 fluorescence intensity (a.u.)
25,CACTCTTTCCTTCCTTACAATTCCAAACTTTACACTTCTACGGAGTCACCTAGTGCAG,8220 fluorescence intensity (a.u.)
26,GTTCGTCCCCAACGCCACGCCGCCACCAACCGCGCCGCCCCGGAGTCACCTAGTGCAG,8500 fluorescence intensity (a.u.)
27,CTCGCATGCCATTTTCCATGTACGCAAGTACCTCACATACCGGAGTCACCTAGTGCAG,10600 fluorescence intensity (a.u.)

# Taken from above.
# AGGAGAGGGGTTTACTCGGTTGAGGATTTTCTTGTTCTCACGGAGTCACCTAGTGCAG – binding signal: 8180 fluorescence intensity (a.u.)
# CATCTCCATTCTTTCATCCTCATCTCTAATGGAGAATTTCCGGAGTCACCTAGTGCAG – binding signal: 9460 fluorescence intensity (a.u.)

# More records follow.

row,Sequence,binding signal
1,TCTCCTCTGGTCCTGCCTACCACTTTGGCTGCCCATGCACCGGAGTCACCTAGTGCAG,9760 fluorescence intensity (a.u.)
2,ACTCATCATCTTTGTTTCTACATATCCTTTAATACTCTCCCGGAGTCACCTAGTGCAG,9830 fluorescence intensity (a.u.)
3,ATAAGACGAACTGTTAAATATGTTTAAAAAAGTCAACGGCCGGAGTCACCTAGTGCAG,8810 fluorescence intensity (a.u.)
4,CTTCCTTCTTGTTTGTTATCGTATGCCCATGGCGACTCCTCGGAGTCACCTAGTGCAG,10900 fluorescence intensity (a.u.)
5,CGTTGTCCTTTTTTTCTCTCTTTCTTCTTCTTCTTCTTCTCGGAGTCACCTAGTGCAG,15500 fluorescence intensity (a.u.)
6,ACTGGTAAATACTCCCTTTTGTTTGAATTCACACTGCACCCGGAGTCACCTAGTGCAG,9790 fluorescence intensity (a.u.)
7,CTCTGCTTTGCTTGCTTCTTCACCCAACTACCACCACCTCCGGAGTCACCTAGTGCAG,8940 fluorescence intensity (a.u.)
8,CGTCTTAGTTACCCTTCTACTCCTATCGCTCGATCGCCTCCGGAGTCACCTAGTGCAG,8380 fluorescence intensity (a.u.)
9,CTCGTGCTACATGTTTGTACTTTGTCCCTATTTAAATCCCCGGAGTCACCTAGTGCAG,8700 fluorescence intensity (a.u.)
10,GTAGAGCCACCCTGATGGACGGTAGACATGACCCTTACCACGGAGTCACCTAGTGCAG,8460 fluorescence intensity (a.u.)
11,TTAACTGAAACCATTCGATTCATCATTGTTTTATACTAGTCGGAGTCACCTAGTGCAG,9480 fluorescence intensity (a.u.)
12,TCTGTTAGTCTCTGCCACGAACGCACGAGCACTGCATCTCCGGAGTCACCTAGTGCAG,9870 fluorescence intensity (a.u.)
13,ATATATATATATATATATATATTGATGATTTAATGAAACTCGGAGTCACCTAGTGCAG,9020 fluorescence intensity (a.u.)
14,CACTCCCGTAACCGATTCGCTTTCACACGACACCGCGACGCGGAGTCACCTAGTGCAG,8310 fluorescence intensity (a.u.)
15,TAGATTTATAGTACTAGGATATGTCACATCATTTGTTTTTCGGAGTCACCTAGTGCAG,10200 fluorescence intensity (a.u.)
16,GGGTTAATCGGGTCTACACGCGTGACATGCGCCGCAACGACGGAGTCACCTAGTGCAG,11200 fluorescence intensity (a.u.)
17,CTGAATGGCTATTGTCTATGTGGTATATTTGGTTGTTGCTCGGAGTCACCTAGTGCAG,8840 fluorescence intensity (a.u.)
18,CTCCGCCTCAAACCTCGCGCGCTCCCGCGTCGCGCGCCGCCGGAGTCACCTAGTGCAG,8060 fluorescence intensity (a.u.)
19,GGCTTTTCTTGGGCTTAATGGGCTGCACATACTTCCACCGCGGAGTCACCTAGTGCAG,10300 fluorescence intensity (a.u.)
20,ATTTTTATTTATGCATGATGTCATTGTTCCATTAATTTCTCGGAGTCACCTAGTGCAG,9410 fluorescence intensity (a.u.)
21,CCCCTACTATTTTCTAGGCTAGGAAGCGTGCGATCTTTTCCGGAGTCACCTAGTGCAG,8280 fluorescence intensity (a.u.)
22,CGGCTGGTGTAGCTCAGTTCGTACGTGTTCTGCCTTTATACGGAGTCACCTAGTGCAG,11000 fluorescence intensity (a.u.)
23,GATTCGCCACCGCGAATCCCACCACCACCCGCAGATCTCCCGGAGTCACCTAGTGCAG,8420 fluorescence intensity (a.u.)
24,TCCCCACCAGATTACACTACCATTCCACCTAGCTTAATTTCGGAGTCACCTAGTGCAG,11200 fluorescence intensity (a.u.)
25,GTGTAACTTGTTTTGCTAGGGTTTTTGATTGCTTTTTACTCGGAGTCACCTAGTGCAG,12000 fluorescence intensity (a.u.)
26,ATATAACAGGGCGTAAATTTTTGGGTGGGATCTAAACCGGCGGAGTCACCTAGTGCAG,10600 fluorescence intensity (a.u.)
27,CGGCGGCGGCGGCGGCGGCGGCGGAGGTGGTGTGGGTGGGCGGAGTCACCTAGTGCAG,8220 fluorescence intensity (a.u.)
